Source: PMC3797749, “Functional Characterisation of the Maturation of the Blood-Brain Barrier in Larval Zebrafish” (PLoS ONE, 2013)

Test system: zebrafish larvae
Conditions: 10 d.p.f.
Procedure: Initial drug exposure assays were performed in larval zebrafish to identify a sufficiently high concentration of drug that could be detected by liquid chromatography/tandem mass spectrometry (LC/MS/MS) analysis without causing toxicity. Maximum tolerated concentration (MTC) was determined using n=6 larvae per group. […] Compounds of interest were prepared as 2 mg/ml stocks in dimethyl sulfoxide (DMSO). […] Larvae were incubated in the drug for 1 hour at room temperature then anaesthetised on ice. For whole uptake analysis, anaesthetised larvae were transferred to 1.5 ml microfuge tubes and all excess liquid was removed. 100 µl ice cold PBS was added, samples were briefly centrifuged and all excess liquid was removed. For brain versus body uptake analysis, larvae were anaesthetised by chilling prior to decapitation using fine iridectomy scissors and No. 5 watchmaker forceps. Head and body tissue samples were collected in separate microfuge tubes on ice and excess liquid removed. 100 µl ice cold PBS was added and samples were briefly centrifuged and all excess liquid removed. The weight of the tissue sample was measured and the samples were frozen at -20 °C prior to extraction for LC/MS/MS.
Test compound was added to the well containing 50 µg/ml verapamil and larvae were incubated for a further hour at room temperature prior to tissue collection as described. […]

CN1[C@@H]2C[C@@H](OC(=O)[C@H](CO)c3ccccc3)C[C@H]1[C@@H]1O[C@@H]12 [Scopolamine]
distribution in head and trunk samples: equal concentrations in head and trunk samples
